# The list shows a part of the results. Shown are side measurements of this screen, not its main read-out; they come without a call. Compounds called inactive in the main read-out are mostly missing here. Words in brackets tell the shape of the fitted curve; partial curves, single points and poor fits give uncertain potencies.
# Assay: qHTS Assay for Modulators of Lamin A Splicing
# Conditions: HeLa LMNA splicing GFP/RFP minigene ratio, 48 h
# Method in brief: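 Read-out is the ratio of GFP to DsRed2 object intensity, acquired by 488 nm laser-scanning cytometry on HeLa lamin A-EGFP minigene reporter cells. Compound incubation 48 hrs at 37 °C in Opti-MEM with 2% FBS; DMSO 0.5% final.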
# [1] = measured here: GFP splicing reporter channel
# [2] = measured here: RFP viability control channel
smiles,measurement,setting,value
CN(C)CCCNc1ncc(C(F)(F)F)cc1Cl,AC50,[1],"3.98 µM [rising, partial curve]"
CCc1ccc(C(=O)O)cc1,AC50,[1],"4.47 µM [rising, partial curve]"
CC(=O)Nc1ccc(OCC(O)Cn2c3ccccc3c3ccccc32)c(C)c1 (stereo not drawn),AC50,[2],"22.4 µM [falling, single point]"
COc1ccc(CNc2ncncc2-c2ccc(N(C)C)cc2)c(OC)c1,AC50,[1],"17.8 µM [falling, partial curve]"
same,AC50,[2],"17.8 µM [falling, partial curve, poor fit]"
NC(=O)Cn1nc(C(F)(F)F)c2c1CCCC2,AC50,[1],"0.112 µM [falling, partial curve]"
same,AC50,[2],"0.355 µM [falling, full curve, poor fit]"
Cc1nc(-c2ccc(Cl)cc2)sc1CCNC(=O)C(=O)Nc1ccc2c(c1)OCO2,AC50,[1],"8.91 µM [falling, partial curve]"
same,AC50,[2],"8.91 µM [falling, partial curve, poor fit]"
Cc1ccc(Cl)cc1NC1=C/C(=N\S(=O)(=O)c2cccs2)c2ccccc2C1=O,AC50,[1],"35.5 µM [falling, single point]"
same,AC50,[2],"3.98 µM [falling, partial curve]"
CCc1c(C)nc2ncnn2c1NCCc1ccc(OC)c(OC)c1,AC50,[1],"25.1 µM [rising, single point]"
same,AC50,[2],"17.8 µM [rising, partial curve]"
CC(C)(C)OC(=O)C(C)(C)O/N=C(\C(=O)O)c1csc(N)n1,AC50,[1],"0.1 µM [rising, full curve, poor fit]"
Cc1cc(N(CCO)CCO)ccc1N=Nc1cc(F)ccc1F,AC50,[2],"0.00316 µM [falling, full curve, poor fit]"
O=C(CN(C1CCCCC1)S(=O)(=O)c1ccc(Cl)cc1)NCc1cccnc1,AC50,[1],"35.5 µM [rising, single point]"
O=C(Nc1nc(-c2ccccn2)cs1)C1CC1,AC50,[2],"14.1 µM [rising, single point]"
Clc1ccc(-c2nnc(COc3ncnc4sccc34)o2)cc1,AC50,[1],"0.0178 µM [falling, full curve, poor fit]"
COc1ccccc1-c1cc(C(=O)Nc2cc(C)n(Cc3ccc(Cl)cc3)n2)no1,AC50,[2],"35.5 µM [falling, single point]"
Cc1ccc(NC(=O)CN2c3cccc4cccc(c34)S2(=O)=O)cc1S(=O)(=O)N1CCOCC1,AC50,[1],"12.6 µM [rising, single point]"
same,AC50,[2],"14.1 µM [rising, partial curve]"
NC(=O)c1ccc[n+]([C@@H]2O[C@H](COP(=O)([O-])OP(=O)(O)OC[C@H]3O[C@@H](n4cnc5c(N)ncnc54)[C@@H](O)[C@@H]3O)[C@@H](O)[C@@H]2O)c1,AC50,[1],"0.00251 µM [rising, full curve, poor fit]"
same,AC50,[2],"0.126 µM [rising, partial curve]"
Cn1c(SCc2nc3ccccc3[nH]2)nnc1-c1cccs1,AC50,[1],"35.5 µM [rising, single point]"
Cc1nnc(SCC(=O)NCc2ccco2)[nH]c1=O,AC50,[2],"8.91 µM [rising, partial curve]"
COc1cc2c(cc1OC)-c1cc(NC3CCCCCCC3)nc(=O)n1CC2,AC50,[2],"10 µM [rising, partial curve]"
CC(=O)OC1C(N2CCCCC2)c2c(ccc(/C=C/C(=O)N3CCCCC3)c2O)OC1(C)C (stereo not drawn),AC50,[2],"35.5 µM [falling, partial curve, poor fit]"
O=C(Cc1cccs1)NCc1cn2ccccc2n1,AC50,[1],"22.4 µM [falling, single point]"
COc1cc(/C=C2/CCc3ccccc3C2=O)cc(OC)c1OC,AC50,[2],"11.2 µM [rising, partial curve, poor fit]"
Nc1ccc(C(=O)N/N=C\c2cc(N=Nc3cccc4ccccc34)ccc2O)cc1,AC50,[2],"17.8 µM [falling, single point]"
COc1ccnc(CS(=O)c2nc3ccc(OC(F)F)cc3[nH]2)c1OC (stereo not drawn),AC50,[2],"1.26 µM [falling, partial curve, poor fit]"
Cc1ccc(S(=O)(=O)NCCC(=O)Nc2ccc(C)c(Cl)c2)cc1C,AC50,[2],"22.4 µM [rising, single point]"
Cc1cc(C(=O)COc2ccc(C#N)cc2)c(C)n1-c1ccc2c(c1)OCO2,AC50,[2],"3.55 µM [rising, partial curve]"
COc1ccc(C(=O)Nc2cccc(C(=O)OCc3cc(=O)n4c5c(sc4n3)CCCC5)c2)cc1,AC50,[2],"11.2 µM [rising, partial curve, poor fit]"
Cc1cc(-c2nn(-c3ccccc3F)cc2CN2CCCC(CO)C2)c(C)s1 (stereo not drawn),AC50,[1],"1.41 µM [falling, partial curve]"
same,AC50,[2],"1 µM [falling, partial curve]"
Cc1cc(NC(=O)CCN2C(=O)C3C4CCC(C4)C3C2=O)cc(C)c1Br (stereo not drawn),AC50,[2],"22.4 µM [rising, single point]"
COc1ccccc1-n1c(=O)n(C)c2c(C(N)=O)nc(-c3cccc(OC)c3OC)nc21,AC50,[2],"0.0282 µM [rising, full curve, poor fit]"
COc1ccc2nc(NC(=O)c3cccc(S(=O)(=O)N4CCOCC4)c3)sc2c1,AC50,[2],"10 µM [falling, partial curve, poor fit]"
COc1ccc2oc(/C=C/N(C)C)c(C(=O)c3ccc(Cl)cc3)c2c1,AC50,[2],"15.8 µM [rising, single point]"
CC(NC(=O)c1ccc2c(c1)sc1nc(-c3ccc(F)cc3)cn12)C12CC3CC(CC(C3)C1)C2 (stereo not drawn),AC50,[2],"0.1 µM [falling, full curve, poor fit]"
CC(=O)N(C)c1ccc(OCC(O)CN(Cc2ccco2)S(=O)(=O)c2ccc(C)cc2)cc1 (stereo not drawn),AC50,[2],"11.2 µM [rising, partial curve]"
O=C(c1n[nH]c2ccccc12)N1CCN(S(=O)(=O)c2ccc3ccccc3c2)CC1,AC50,[2],"31.6 µM [rising, single point]"
Cc1cc(OCC(=O)Nc2ccc(S(=O)(=O)NC3=NCCCCC3)cc2)c(C(C)C)cc1Cl,AC50,[2],"14.1 µM [rising, partial curve, poor fit]"
CSc1ccccc1NC(=O)NCCCl,AC50,[1],"0.501 µM [falling, single point]"
Cn1c(=O)c(/C(N)=N/OC(=O)c2ccccc2)cn(-c2ccccc2)c1=O,AC50,[2],"0.0224 µM [falling, full curve, poor fit]"
O=C(COc1ccccc1[N+](=O)[O-])N1CCC(Cc2ccccc2)CC1,AC50,[1],"2.82 µM [rising, partial curve]"
CSc1ccccc1NC(=O)CN(C)Cc1ccc(Br)cc1,AC50,[2],"35.5 µM [rising, single point]"
O=C(NCCc1ccc(Cl)cc1)C1CCN(S(=O)(=O)c2ccc3[nH]ccc3c2)CC1,AC50,[1],"11.2 µM [falling, partial curve]"
O=C(COCc1cc(-c2ccc3c(c2)OCO3)on1)Nc1cc(Cl)ccc1O,AC50,[1],"3.55 µM [falling, single point]"
same,AC50,[2],"3.55 µM [falling, single point]"
COc1ccc(CCNC(=O)CCSc2nc(-c3ccco3)cc(C(F)(F)F)n2)cc1,AC50,[1],"35.5 µM [rising, single point]"
CN1C(=S)N(c2cccnc2)C(=O)/C1=C\c1ccc(N(C)C)cc1,AC50,[1],"20 µM [falling, partial curve, poor fit]"
O=C(c1ccncc1)N1CCN(c2ccc3ccccc3n2)CC1,AC50,[1],"22.4 µM [falling, single point]"
CC(=O)c1cccc(NC(=S)NC2CCCCC2)c1,AC50,[1],"6.31 µM [rising, partial curve, poor fit]"
same,AC50,[2],"15.8 µM [rising, partial curve, poor fit]"
Cc1ccc(-c2cn(-c3ccccc3)c3[n+]2CCCS3)cc1,AC50,[1],"7.94 µM [rising, partial curve]"
same,AC50,[2],"7.08 µM [rising, full curve]"
CCCCn1c(Oc2ccc(C(=O)OC)cc2)nc2c1c(=O)n(C)c(=O)n2C,AC50,[1],"12.6 µM [rising, single point]"
Oc1ccccc1CN(Cc1ccco1)CC(O)COCc1ccc(Cl)cc1 (stereo not drawn),AC50,[1],"7.08 µM [rising, partial curve, poor fit]"
same,AC50,[2],"12.6 µM [rising, partial curve]"
Cc1c(C(=O)NCc2cccnc2)oc2ccc(S(=O)(=O)N3CCCC(C)C3)cc12 (stereo not drawn),AC50,[1],"12.6 µM [rising, partial curve]"
same,AC50,[2],"14.1 µM [rising, partial curve]"
O=C(OCC(=O)N1CCc2ccccc21)c1c2c(nc3ccccc13)CCCCC2,AC50,[1],"4.47 µM [rising, partial curve, poor fit]"
same,AC50,[2],"22.4 µM [rising, partial curve]"
O=C(OC(C(=O)Nc1cccc(C(F)(F)F)c1)c1ccccc1)C1CCCCC1 (stereo not drawn),AC50,[1],"31.6 µM [rising, single point]"
same,AC50,[2],"14.1 µM [rising, partial curve, poor fit]"
Fc1ccc(-c2nnc(SCc3ncc(-c4ccccc4)o3)n2CC2CCCO2)cc1 (stereo not drawn),AC50,[1],"35.5 µM [rising, single point]"
Cc1cccc(/C=N/NC(=O)CNc2cccc3ccccc23)n1,AC50,[1],"10 µM [rising, partial curve]"
same,AC50,[2],"31.6 µM [rising, single point]"
O=C(O)C1CC(=O)N(C2CCCCC2)C1c1ccccc1 (stereo not drawn),AC50,[2],"0.0447 µM [falling, full curve, poor fit]"
CCn1c(SCc2nc3ccccc3[nH]2)nnc1-c1cccs1,AC50,[1],"6.31 µM [rising, full curve, poor fit]"
same,AC50,[2],"10 µM [rising, partial curve]"

# Random excerpt: 3 records from the list, in no set order.
smiles,measurement,setting,value
CCc1c(C)nc2ncnn2c1NCCc1ccc(OC)c(OC)c1,AC50,[2],"17.8 µM [rising, partial curve]"
Cc1cc(C(=O)COc2ccc(C#N)cc2)c(C)n1-c1ccc2c(c1)OCO2,AC50,[2],"3.55 µM [rising, partial curve]"
Cc1ccc(Cl)cc1NC1=C/C(=N\S(=O)(=O)c2cccs2)c2ccccc2C1=O,AC50,[2],"3.98 µM [falling, partial curve]"

# — PubChem BioAssay AID1487 (National Center for Advancing Translational Sciences (NCATS), 2009)
